# Reference: patent US7511034B2, “Dialkylhydroxybenzoic acid derivatives containing metal chelating groups and their therapeutic uses” (Samsung Electronics Co., Ltd., priority 2001, dated 2009)
# At least one structure is not confirmed: it was looked up by name or label, or the drawing left a doubt.
# Test system: multilayer liposome (soybean phosphatidylcholine)
# Test: Inhibition of lipid peroxidation (liposome oxidation, TBA absorbance at 532 nm)
# Format: biochemical
# Conditions: liposome oxidation initiated by FeCl2, 37° C., 15 minutes; read-out: Inhibitor Concentration (IC50)
# Method: The compounds of the present invention were tested for antioxidizing effect in terms of the repression of the radical chain reaction of a multilayer liposome.
# The liposome was prepared as followings: 30 mg of commercially available soybean phosphatidylcholine (PC, Sigma Chemical Co., U.S.A.) was dissolved in 1 mL of ethanol, and 200 μL of the ethanol/PC solution was added to 10 mL of 10 mM Tris buffer including 50 mM NaCl (pH 7.0) with stirring.
# The ability of a compound to inhibit oxidation of the liposome was evaluated as followings: To 400 μL of the liposomes were added the test compound (in buffer or ethanol) and histidine-FeCl3 (167:33 μM final). Oxidation was initiated by the addition of FeCl2 (33 μM final prepared in nitrogen purged water). The mixtures was shaken at 37° C. for 15 minutes. Thereafter, tubes were treated with 1 mL of 0.67% thiobabituric acid (TBA):10% trichloroacetic acid (2:1, v/v) in 0.25 N HCl solution, containing 1.5% (v/v) t-butylhydroxytoluene (BHT) to terminate oxidation. The aliquots were heated to 100° C. for 20 minutes. After ice cooling, 1 mL of chloroform was added to 1 mL supernatant from tubes and tubes were centrifuged. The absorbances of the resulting supernatant were measured at 532 nm (see: Table below).
smiles,measurement,value
O=c1c2ccccc2[se]n1-c1ccccc1 [Ebselen],IC50,68.9 µM
